Data as given in PubChem BioAssay AID1259308 (NCATS, 2017)

Test: 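Genes whose loss raises luciferase production in HEK293 cells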 (primary screen)
Cell system: human HEK293 embryonic kidney cells stably expressing firefly luciferase (HEK-CMV-Luc2-Hygro)
Reagent: single siRNA against human genes, 0.8 pmol siRNA per well
Duration: 72 h
Read-out: 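Luciferase light (ONE-Glo) measured on one replicate plate set and viability (CellTiter-Glo) on the other, scaled to a negative control siRNA, with robust z-scores and luciferase per cell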
Scale: total luciferase, z-score and total luciferase, % of control: higher = more reporter protein produced; luciferase per cell, z-score: higher = more reporter output per viable cell; viable cells, % of control: higher = more viable cells
Rule for the call: 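Active when the median/MAD z-score for overall luciferase is greater than 3; a gene was taken forward for validation with new siRNAs if at least two of its three siRNAs passed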
Calls: active = raised luciferase; inactive = no rise
Here is an unselected part of about 59,000 reagents tested. Of all reagents, about 1,510 (2.6%) got an active call. 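Calls use total luciferase alone and ignore viability, so some active siRNAs may act by altering cell number.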 Entries without a mark were called inactive. The numbers tell different reagents against one gene apart.

The first 3 records, to show the layout:
no.	gene symbol	reagent	total luciferase, z-score	total luciferase, % of control	luciferase per cell, z-score	viable cells, % of control
1	MRPL35	1	-0.414	73.7	-0.282	88.7
2	MRPL35	2	-0.604	69.9	-0.305	84.6
3	MRPL35	3	-2.77	26.9	-1.84	48.8

The list itself, repeating the preview:
no.	gene symbol	reagent	total luciferase, z-score	total luciferase, % of control	luciferase per cell, z-score	viable cells, % of control
1	MRPL35	1	-0.414	73.7	-0.282	88.7
2	MRPL35	2	-0.604	69.9	-0.305	84.6
3	MRPL35	3	-2.77	26.9	-1.84	48.8
4	NGDN	1	0.498	91.8	0.927	80.4
5	NGDN	2	-0.853	64.9	-0.922	92.5
6	NGDN	3	-1.68	48.4	-1.38	77.7
7	PRR36	1	0.346	88.8	0.0606	97.6
8	PRR36	2	2.64	134	1.27	107
9	PRR36	3	0.383	89.5	-0.116	103
10	NCF1	1	-0.44	73.1	0.313	75.3
11	NCF1	2	-0.895	64.1	-0.871	90.1
12	NCF1	3	-0.744	67.1	-0.65	89
13	VPS52	1	-1.13	59.4	-0.408	73.9
14	VPS52	2	1.19	105	0.774	96.2
15	VPS52	3	0.685	95.5	-0.357	117
16	DEFB4A	1	-1.97	42.7	-2.3	87.5
17	DEFB4A	2	0.765	97.1	1.4	75
18	DEFB4A	3	-0.465	72.6	-0.263	87
19	STH	1	0.788	97.6	0.702	90.6
20	STH	2	-1.42	53.7	-1.26	83.7
21	STH	3	0.295	87.8	0.593	83.9
22	LINGO1	1	-0.0767	80.4	-0.2	94.7
23	LINGO1	2	0.543	92.7	0.834	83.2
24	LINGO1	3	0.294	87.7	0.193	93.2
25	KDM6A	1	0.648	94.8	1.3	75.1
26	KDM6A	2	-0.4	73.9	-0.913	105
27	KDM6A	3	-0.42	73.5	-1.14	111
28	FBXO47	1	-0.315	75.6	-0.000216	84.5
29	FBXO47	2	0.314	88.1	0.672	82.5
30	FBXO47	3	-0.275	76.4	-0.542	98.5
31	FCGBP	1	-0.613	69.7	-0.813	96.5
32	FCGBP	2	3.52 (active)	152	3.15	74.1
33	FCGBP	3	0.369	89.2	-0.573	116
34	PCSK5	1	0.967	101	0.625	95.8
35	PCSK5	2	1.4	110	0.695	102
36	PCSK5	3	-0.714	67.7	-0.347	82.9
37	SPMAP1	1	0.749	96.8	0.83	86.9
38	SPMAP1	2	-0.594	70.1	0.316	72.1
39	SPMAP1	3	1.48	111	0.571	107
40	SPDYE14	1	0.915	100	0.479	98.6
41	SPDYE14	2	-0.201	77.9	-0.681	104
42	SPDYE14	3	1.31	108	1.03	92
43	TEDC2	1	0.6	93.8	0.338	95.9
44	TEDC2	2	-0.122	79.5	0.241	83.3
45	TEDC2	3	-0.484	72.3	-0.727	97.8
46	U2AF1	1	5.46 (active)	191	4.5	65.1
47	U2AF1	2	3.64 (active)	154	2.81	82.3
48	U2AF1	3	3.58 (active)	153	3.75	63.7
49	PPAT	1	1.44	111	2.05	72
50	PPAT	2	-0.905	63.9	-0.0411	72.2
51	PPAT	3	-1.13	59.5	0.282	61.7
52	PCDHA3	1	-0.267	76.6	-0.634	101
53	PCDHA3	2	-0.154	78.8	-0.178	92.3
54	PCDHA3	3	-1.52	51.6	-0.304	62.5
55	SLC39A2	1	-0.891	64.2	-1.07	94.9
56	SLC39A2	2	-0.608	69.8	-0.268	83.7
57	SLC39A2	3	0.361	89.1	0.211	94.2
58	RAB9A	1	0.33	88.4	0.358	89.9
59	RAB9A	2	-0.865	64.7	-1.47	107
60	RAB9A	3	0.653	94.9	0.356	96.5
61	PRDM9	1	0.0486	82.9	0.867	73.7
62	PRDM9	2	0.0747	83.4	-0.42	104
63	PRDM9	3	-0.381	74.3	1.35	58.2
64	TUBBP5	1	0.649	94.8	0.164	101
65	TUBBP5	2	-0.0233	81.4	-0.0239	91.6
66	TUBBP5	3	0.182	85.5	-0.0453	96.7
67	NEK3	1	-1.28	56.4	-0.704	75.8
68	NEK3	2	-0.644	69.1	-0.358	84.8
69	NEK3	3	1.74	117	2.11	74.7
70	FGB	1	-0.957	62.8	-0.871	88.3
71	FGB	2	3.45 (active)	150	2.65	83.7
72	FGB	3	0.0356	82.6	-0.382	102
73	FAM216A	1	1.22	106	0.977	91.8
74	FAM216A	2	-0.516	71.6	-0.158	83.4
75	FAM216A	3	4.86 (active)	179	2.88	93.6
